Data taken from patent US20200181263A1.
No constants are given. Whether binding was seen depends on the method and setting. Some binding calls cover weakened binding; strength is not graded here. Values belong to the binder of their own block, whether it stands above or below them.

By UniProt entry, the sequences of proteins in these tests, tags left out. Where a name states a change or a piece, a line headed by the entry shows the natural chain unless it says otherwise.
UniProt P09693: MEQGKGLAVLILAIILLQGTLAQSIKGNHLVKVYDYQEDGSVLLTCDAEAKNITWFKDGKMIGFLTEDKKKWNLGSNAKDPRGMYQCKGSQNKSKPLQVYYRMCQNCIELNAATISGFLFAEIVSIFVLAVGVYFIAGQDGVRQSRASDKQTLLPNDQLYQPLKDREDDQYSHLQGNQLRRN
UniProt P07766: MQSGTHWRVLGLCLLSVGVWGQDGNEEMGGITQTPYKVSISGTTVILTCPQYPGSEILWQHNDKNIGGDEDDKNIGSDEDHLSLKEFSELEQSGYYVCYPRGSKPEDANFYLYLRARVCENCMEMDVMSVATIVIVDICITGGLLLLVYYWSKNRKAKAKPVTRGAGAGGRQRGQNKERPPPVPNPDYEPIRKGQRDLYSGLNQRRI

Molecular target: human CD3 gamma-epsilon single-chain (human) (UniProt P09693+P07766)
Assay: SPR

binding: binds
B1: PRO747 (protein)
chain 1: DIQMTQSPSSLSASVGDRVTITCQASENIYSFLAWYQQKPGKAPKLLIYSASKLAAGVPSRFSGSGSGTDFTLTISSLQPEDFATYYCQQTNRYSNPDIYNVFGTGTKVTVLGGGGGSGGGGSGGGGSGGGGSEVQLVESGGGLVQPGGSLRLSCAASGIDFNSNYYMCWVRQAPGKGLEWIGCIYVGSHVNTYYANWAKGRFTISRDNSKNTVYLQMNSLRAEDTAVYYCATSGSSVLYFKFWGQGTLVTVSSGGGGSGGGGSDIQMTQSPSSLSASVGDRVTITCQSSQSVFSNNYLAWFQQKPGQSPKRLIYSASTLASGVPSRFSGSGSGTDFTLTISSLQPEDFATYYCLGSYACSSADCYVFGCGTKVTVLGAEAAAKEAAAKADIQMTQSPSSLSASVGDRVTITCQSSESVYSNNQLSWYQQKPGQPPKLLIYDASDLASGVPSRFSGSGSGTDFTLTISSLQPEDFATYYCAGGFSSSSDTAFGGGTKLTVLG
chain 2: DIQMTQSPSSLSASVGDRVTITCQASENIYSFLAWYQQKPGKAPKLLIYSASKLAAGVPSRFSGSGSGTDFTLTISSLQPEDFATYYCQQTNRYSNPDIYNVFGTGTKVTVLGGGGGSGGGGSGGGGSGGGGSEVQLVESGGGLVQPGGSLRLSCAASGIDFNSNYYMCWVRQAPGKGLEWIGCIYVGSHVNTYYANWAKGRFTISRDNSKNTVYLQMNSLRAEDTAVYYCATSGSSVLYFKFWGQGTLVTVSSGGGGSGGGGSEVQLVESGGGLVQPGGSLRLSCAASGFSLSSNAMGWVRQAPGKGLEYIGIISVGGFTYYASWAKGRFTISRDNSKNTVYLQMNSLRAEDTATYFCARDRHGGDSSGAFYLWGQGTLVTVSSAEAAAKEAAAKAEVQLVESGGGLVQPGGSLRLSCAASGFSLSSYDMSWVRQAPGKCLAWIGASYASGPTYYASWAKGRFTISRDNSKNTVYLQMNSLRAEDTATYFCARGGWTGTSHSNIWGQGTLVTVSS

binding: binds
B2: PRO741 (protein)
chain 1: DIQMTQSPSSLSASVGDRVTITCQASENIYSFLAWYQQKPGKAPKLLIYSASKLAAGVPSRFSGSGSGTDFTLTISSLQPEDFATYYCQQTNRYSNPDIYNVFGTGTKVTVLGGGGGSGGGGSGGGGSGGGGSEVQLVESGGGLVQPGGSLRLSCAASGIDFNSNYYMCWVRQAPGKGLEWIGCIYVGSHVNTYYANWAKGRFTISRDNSKNTVYLQMNSLRAEDTAVYYCATSGSSVLYFKFWGQGTLVTVSSGGGGSGGGGSDIQMTQSPSSLSASVGDRVTITCQSSQSVFSNNYLAWFQQKPGQSPKRLIYSASTLASGVPSRFSGSGSGTDFTLTISSLQPEDFATYYCLGSYACSSADCYVFGCGTKVTVLGSGGGGSGGGGSDVVMTQSPSSLSASVGDRVTITCQASQIISSRSAWYQQKPGQPPKLLIYQASKLASGVPSRFSGSGSGTDFTLTISSLQPEDFATYYCQCTYIDSNFGAFGGGTKLTVLG
chain 2: DIQMTQSPSSLSASVGDRVTITCQASENIYSFLAWYQQKPGKAPKLLIYSASKLAAGVPSRFSGSGSGTDFTLTISSLQPEDFATYYCQQTNRYSNPDIYNVFGTGTKVTVLGGGGGSGGGGSGGGGSGGGGSEVQLVESGGGLVQPGGSLRLSCAASGIDFNSNYYMCWVRQAPGKGLEWIGCIYVGSHVNTYYANWAKGRFTISRDNSKNTVYLQMNSLRAEDTAVYYCATSGSSVLYFKFWGQGTLVTVSSGGGGSGGGGSEVQLVESGGGLVQPGGSLRLSCAASGFSFSSSYWICWVRQAPGKGLEWVGCVFTGDGTTYYASWAKGRFTISRDNSKNTVYLQMNSLRAEDTATYFCARPVSVYYYGMDLWGQGTLVTVSSSGGGGSGGGGSEVQLVESGGGLVQPGGSLRLSCAASGFSLSSYDMSWVRQAPGKCLAWIGASYASGPTYYASWAKGRFTISRDNSKNTVYLQMNSLRAEDTATYFCARGGWTGTSHSNIWGQGTLVTVSS
